Among the data in article PMC8061361 are binding values, retold here.

Protein sequences, listed by entry. Tags and fused reporters are not part of them. Residues count along the entry.
UniProt O95831, residues 102-613: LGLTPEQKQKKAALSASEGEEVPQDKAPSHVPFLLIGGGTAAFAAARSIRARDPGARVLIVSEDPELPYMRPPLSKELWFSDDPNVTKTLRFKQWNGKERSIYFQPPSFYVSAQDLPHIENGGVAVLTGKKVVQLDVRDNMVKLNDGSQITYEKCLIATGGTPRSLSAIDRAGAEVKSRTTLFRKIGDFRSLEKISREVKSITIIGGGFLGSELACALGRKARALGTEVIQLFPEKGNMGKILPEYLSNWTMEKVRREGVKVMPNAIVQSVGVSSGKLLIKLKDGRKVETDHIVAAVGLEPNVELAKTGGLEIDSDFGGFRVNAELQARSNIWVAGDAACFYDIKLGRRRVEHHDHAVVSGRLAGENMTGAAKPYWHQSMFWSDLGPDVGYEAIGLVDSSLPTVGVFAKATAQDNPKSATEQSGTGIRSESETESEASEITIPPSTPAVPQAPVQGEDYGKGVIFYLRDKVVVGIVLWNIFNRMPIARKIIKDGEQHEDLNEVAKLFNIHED
UniProt Q07820: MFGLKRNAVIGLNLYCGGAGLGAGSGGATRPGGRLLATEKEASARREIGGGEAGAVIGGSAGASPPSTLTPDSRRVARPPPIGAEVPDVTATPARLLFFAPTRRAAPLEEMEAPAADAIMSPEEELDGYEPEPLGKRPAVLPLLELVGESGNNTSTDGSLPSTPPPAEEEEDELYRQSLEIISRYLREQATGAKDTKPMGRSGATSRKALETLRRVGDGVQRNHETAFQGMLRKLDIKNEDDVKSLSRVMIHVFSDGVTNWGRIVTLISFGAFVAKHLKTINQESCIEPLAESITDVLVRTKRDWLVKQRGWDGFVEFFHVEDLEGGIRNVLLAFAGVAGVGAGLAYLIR

Where two headings read alike, the source gives them in different places. No constants are given. Whether binding was seen depends on the method and setting. Binding seen in cells or lysates may run through a third protein. A yes stands for co-enrichment or nearness to the bait. Other partners may have been found. For part of these data: A no says only that the protein was not detected with the bait. Where a sequence is shown, tags or fusion partners need not be part of it.

Assay [1] concerns the target T1, Flag-tagged OTU deubiquitinase 1 (OTUD1) (UniProt Q5VV17).
T1 sequence: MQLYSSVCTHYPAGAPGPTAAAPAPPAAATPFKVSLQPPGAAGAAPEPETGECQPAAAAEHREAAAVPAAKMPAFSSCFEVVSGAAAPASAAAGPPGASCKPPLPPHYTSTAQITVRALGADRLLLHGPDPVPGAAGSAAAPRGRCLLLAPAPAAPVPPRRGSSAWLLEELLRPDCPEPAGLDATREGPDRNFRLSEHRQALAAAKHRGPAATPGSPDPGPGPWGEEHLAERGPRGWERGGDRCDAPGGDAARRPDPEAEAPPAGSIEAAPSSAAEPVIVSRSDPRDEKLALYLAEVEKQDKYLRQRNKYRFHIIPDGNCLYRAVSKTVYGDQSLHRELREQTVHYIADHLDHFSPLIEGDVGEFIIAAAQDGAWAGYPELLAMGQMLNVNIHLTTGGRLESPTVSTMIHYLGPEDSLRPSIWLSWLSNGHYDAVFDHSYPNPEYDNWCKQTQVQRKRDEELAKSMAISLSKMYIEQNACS
The experiment in a line: affinity purification with mass spectrometry; Flag-OTUD1 transfected into 293T cells; lysate immunoprecipitated with anti-Flag magnetic beads, washed three times, eluted, gel-based LC-MS/MS.

Assay [2] addresses T1, Flag-tagged OTU deubiquitinase 1 (OTUD1). The assay is described as above. The source holds these as a separate data set.

As to “endogenous apoptosis-inducing factor (AIF), wild type (from UniProt O95831 102-613)”, the binding result in assay [1] is recorded as “binds”.
On the same count and under the same terms, the entry for “myeloid cell leukemia sequence 1 (MCL1) (from UniProt Q07820 1-350)” is “no binding”.

B1: DDB1 and CUL4 associated factor 10 (DCAF10), endogenous in 293T (protein, UniProt Q5QP82 1-559)
chain: MFPFGPHSPGGDGSAGAGAEEPTPHEGQAAATGPPSPLHPGADATHPPPPARSPRRPGAPSLSPAPRSGELGLPGAPESSTASAPGEPSPPSPPCRRPGPDCRAKSRGRHGLGAGLGGPGARLFGWLKERSLGRGLFVDPARDNFRTMTSLYGSIHPADSVYLSTRTHGAVFNLEYSPDGSVLTVACEQTEVLLFDPISSKHIKTLSEAHEDCVNNIRFLDNRLFATCSDDTTIALWDLRKLNTKVCTLHGHTSWVKNIEYDTNTRLLVTSGFDGNVIIWDTNRYTEDGCPHKKFFHTRFLMRMRLTPDCSKMLISTSSGYLLILHDLDLTKSLEVGSYPILRARRTTSSSDLTTSSSSSGPRVSGSPCHHSDSNSSEKHMSRASQREGVSPRNSLEVVTPEVLGESDHGNCITSLQLHPKGWATLLRCSSNSDDEECTCVYEFQEGAPVRPVSPRCSLRLTHYIEEANVGRGYIKELCFSPDGRMISSPHGYGIRLLGFDKQCSELVDCLPKEASPLRVIRSLYSHNDVVLTTKFSPTHCQIASGCLSGRVSLYQPKF
For the molecule B1, the binding result in assay [2] was “binds”.
